These are yes or no findings as the source states them, for the method shown. Binding seen in cells or lysates may run through a third protein. These calls come from enrichment with a bait or labelling near it, and not all partners need be listed.
Target: GABA type A receptor γ2 subunit (mouse (endogenous in cortical tissue)) (UniProt P22723)
Experiment: affinity purification with mass spectrometry; mouse cortical tissue lysate (mice injected with vehicle or 10 mg/kg DZP, 12 h) in co-IP buffer (50 mM Tris HCl pH 7.6, 50 mM NaCl, 0.25% Igepal, 1 mM EDTA), immunoprecipitated overnight with rabbit γ2 subunit antibody or rabbit IgG, Protein A Sepharose, 4°C; label-free HPLC-ESI-MS/MS; hits at least 3:1 enriched over IgG control

Protein sequences, listed by entry. Tags and fused reporters are not part of them. Residues count along the entry.
UniProt P22723, residues 39-474: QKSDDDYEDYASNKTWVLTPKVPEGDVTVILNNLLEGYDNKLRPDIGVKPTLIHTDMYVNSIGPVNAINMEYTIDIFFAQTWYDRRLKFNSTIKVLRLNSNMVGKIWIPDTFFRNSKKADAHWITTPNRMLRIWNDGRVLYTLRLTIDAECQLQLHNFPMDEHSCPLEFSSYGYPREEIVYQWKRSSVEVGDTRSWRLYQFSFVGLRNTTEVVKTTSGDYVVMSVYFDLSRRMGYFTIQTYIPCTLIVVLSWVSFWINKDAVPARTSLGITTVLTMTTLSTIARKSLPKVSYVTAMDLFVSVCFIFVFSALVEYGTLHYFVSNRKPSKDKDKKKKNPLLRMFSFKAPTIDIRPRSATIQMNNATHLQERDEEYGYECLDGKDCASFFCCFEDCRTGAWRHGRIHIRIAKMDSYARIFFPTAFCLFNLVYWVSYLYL

| Binder | binding |
| --- | --- |
| Carbonyl reductase 1 (protein, UniProt P48758 1-277) MSSSRPVALVTGANKGIGFAITRDLCRKFSGDVVLAARDEERGQTAVQKLQAEGLSPRFHQLDIDNPQSIRALRDFLLKEYGGLDVLVNNAGIAFKVNDDTPFHIQAEVTMKTNFFGTRDVCKELLPLIKPQGRVVNVSSMVSLRALKNCRLELQQKFRSETITEEELVGLMNKFVEDTKKGVHAEEGWPNSAYGVTKIGVTVLSRILARKLNEQRRGDKILLNACCPGWVRTDMAGPKATKSPEEGAETPVYLALLPPDAEGPHGQFVQDKKVEPW | binds |
| Neurofilament, medium polypeptide (protein, UniProt P08553 1-848) MSYTLDSLGNPSAYRRVTETRSSFSRVSGSPSSGFRSQSWSRGSPSTVSSSYKRSALAPRLAYSSAMLSSAESSLDFSQSSSLLNGGSGGDYKLSRSNEKEQLQGLNDRFAGYIEKVHYLEQQNKEIEAEIQALRQKQASHAQLGDAYDQEIRELRATLEMVNHEKAQVQLDSDHLEEDIHRLKERFEEEARLRDDTEAAIRALRKDIEESSMVKVELDKKVQSLQDEVAFLRSNHEEEVADLLAQIQASHITVERKDYLKTDISTALKEIRSQLECHSDQNMHQAEEWFKCRYAKLTEAAEQNKEAIRSAKEEIAEYRRQLQSKSIELESVRGTKESLERQLSDIEERHNHDLSSYQDTIQQLENELRGTKWEMARHLREYQDLLNVKMALDIEIAAYRKLLEGEETRFSTFSGSITGPLYTHRQPSVTISSKIQKTKVEAPKLKVQHKFVEEIIEETKVEDEKSEMEETLTAIAEELAASAKEEKEEAEEKEEEPEAEKSPVKSPEAKEEEEEGEKEEEEEGQEEEEEEDEGVKSDQAEEGGSEKEGSSEKDEGEQEEEEGETEAEGEGEEAEAKEEKKIEGKVEEVAVKEEIKVEKPEKAKSPMPKSPVEEVKPKPEAKAGKGEQKEEEKVEEEKKEVTKESPKEEKVEKKEEKPKDVADKKKAESPVKEKAVEEVITISKSVKVSLEKDTKEEKPQPQEKVKEKAEEEGGSEEEGSDRSPQESKKEDIAINGEVEGKEEEEQETQEKGSGREEEKGVVTNGLDVSPAEEKKGEDSSDDKVVVTKKVEKITSEGGDGATKYITKSVTVTQKVEEHEETFEEKLVSTKKVEKVTSHAIVKEVTQGD | binds |
| Aconitase 2 (protein, UniProt Q99KI0 28-780) QRAKVAMSHFEPSEYIRYDLLEKNINIVRKRLNRPLTLSEKIVYGHLDDPANQEIERGKTYLRLRPDRVAMQDATAQMAMLQFISSGLPKVAVPSTIHCDHLIEAQVGGEKDLRRAKDINQEVYNFLATAGAKYGVGFWRPGSGIIHQIILENYAYPGVLLIGTDSHTPNGGGLGGICIGVGGADAVDVMAGIPWELKCPKVIGVKLTGSLSGWTSPKDVILKVAGILTVKGGTGAIVEYHGPGVDSISCTGMATICNMGAEIGATTSVFPYNHRMKKYLSKTGRTDIANLAEEFKDHLVPDPGCQYDQVIEINLNELKPHINGPFTPDLAHPVADVGTVAEKEGWPLDIRVGLIGSCTNSSYEDMGRSAAVAKQALAHGLKCKSQFTITPGSEQIRATIERDGYAQILRDVGGIVLANACGPCIGQWDRKDIKKGEKNTIVTSYNRNFTGRNDANPETHAFVTSPEIVTALAIAGTLKFNPETDFLTGKDGKKFKLEAPDADELPRSDFDPGQDTYQHPPKDSSGQRVDVSPTSQRLQLLEPFDKWDGKDLEDLQILIKVKGKCTTDHISAAGPWLKFRGHLDNISNNLLIGAINIENGKANSVRNAVTQEFGPVPDTARYYKKHGIRWVVIGDENYGEGSSREHAALEPRHLGGRAIITKSFARIHETNLKKQGLLPLTFADPSDYNKIHPVDKLTIQGLKDFAPGKPLKCVIKHPNGTQETILLNHTFNETQIEWFRAGSALNRMKELQQ | binds |
| Dihydropyrimidinase like 5 (protein, UniProt Q9EQF6 1-564) MLANSASVRILIKGGKVVNDDCTHEADVYIESGIIQQVGRELMIPGGAKVIDATGKLVIPGGIDTSTHFHQTFMNATCVDDFYHGTKAALVGGTTMIIGHVLPDKETSLVEAYEKCRALADPKVCCDYALHVGITWWAPKVKAEMETLVREKGVNSFQMFMTYKDLYMLRDSELYQVFHACRDIGAIPRVHAENGELVAEGAKEALDLGITGPEGIEISHPEELEAEATHRVITIANRTHCPIYLVNVSSISAGDVIAAAKMQGKVVLAETTNAHATLTGLHYYHQDWSHAAAYVTVPPLRLDTNTSTYLMSLLANDTLNIVASDHRPFTTKQKAMGKEDFTKIPHGVSGVQDRMSVVWERGVVGGKMDENRFVAVTSSNAAKILNLYPRKGRIIPGADADVVVWDPEATKTISASTQVQGGDFNLYENMRCHGVPLVTISRGRVVYENGVFMCAEGTGKFCPLRSFPDIVYKKLVQREKTLKVRGVDRTPYLGDVAIVVHPGKKEMGTPLADTPTRPVTRHGGMRDLHESSFSLSGSQIDDHVPKRASARILAPPGGRSSGIW | binds |
| Contactin 1 (protein, UniProt P12960 21-1001) DFTWHRRYGHGVSEEDKGFGPIFEEQPINTIYPEESLEGKVSLNCRARASPFPVYKWRMNNGDVDLTNDRYSMVGGNLVINNPDKQKDAGVYYCLASNNYGMVRSTEATLSFGYLDPFPPEERPEVKVKEGKGMVLLCDPPYHFPDDLSYRWLLNEFPVFITMDKRRFVSQTNGNLYIANVESSDRGNYSCFVSSPSITKSVFSKFIPLIPIPERTTKPYPADIVVQFKDIYTMMGQNVTLECFALGNPVPDIRWRKVLEPMPSTAEISTSGAVLKIFNIQLEDEGLYECEAENIRGKDKHQARIYVQAFPEWVEHINDTEVDIGSDLYWPCIATGKPIPTIRWLKNGYSYHKGELRLYDVTFENAGMYQCIAENAYGSIYANAELKILALAPTFEMNPMKKKILAAKGGRVIIECKPKAAPKPKFSWSKGTEWLVNSSRILIWEDGSLEINNITRNDGGIYTCFAENNRGKANSTGTLVITNPTRIILAPINADITVGENATMQCAASFDPALDLTFVWSFNGYVIDFNKEITHIHYQRNFMLDANGELLIRNAQLKHAGRYTCTAQTIVDNSSASADLVVRGPPGPPGGLRIEDIRATSVALTWSRGSDNHSPISKYTIQTKTILSDDWKDAKTDPPIIEGNMESAKAVDLIPWMEYEFRVVATNTLGTGEPSIPSNRIKTDGAAPNVAPSDVGGGGGTNRELTITWAPLSREYHYGNNFGYIVAFKPFDGEEWKKVTVTNPDTGRYVHKDETMTPSTAFQVKVKAFNNKGDGPYSLVAVINSAQDAPSEAPTEVGVKVLSSSEISVHWKHVLEKIVESYQIRYWAGHDKEAAAHRVQVTSQEYSARLENLLPDTQYFIEVGACNSAGCGPSSDVIETFTRKAPPSQPPRIISSVRSGSRYIITWDHVVALSNESTVTGYKILYRPDGQHDGKLFSTHKHSIEVPIPRDGEYVVEVRAHSDGGDGVVSQVKISGVSTLS | binds |
| ATP synthase peripheral stalk subunit OSCP (protein, UniProt Q9DB20 24-213) FAKLVRPPVQVYGIEGRYATALYSAASKEKKLDQVEKELLRVGQLLKDPKVSLAVLNPYIKRTVKVKSLNDITKREKFSPLTANLMNLLAENGRLGNTQGIISAFSTIMSVHRGEVPCTVTTASPLDDAVLSELKTVLKSFLSPNQILKLEIKTDPSIMGGMIVRIGEKYVDMSAKSKIQKLSKAMREML | binds |
| Succinate-CoA ligase ADP-forming beta subunit (protein, UniProt Q9Z2I9 54-463) SLHEYLSMELLQEAGVSVPKGFVAKSSDEAYAIAKKLGSKDVVIKAQVLAGGRGKGTFTSGLKGGVKIVFSPEEAKAVSSQMIGQKLITKQTGEKGRICNQVLVCERKYPRREYYFAITMERSFQGPVLIGSAQGGVNIEDVAAENPEAIVKEPIDIVEGIKKEQAVTLAQKMGFPSNIVDSAAENMIKLYNLFLKYDATMVEINPMVEDSDGKVLCMDAKINFDSNSAYRQKKIFDLQDWSQEDERDKEAANADINYIGLDGSIGCLVNGAGLAMATMDIIKLHGGTPANFLDVGGGATVQQVTEAFKLITSDKKVQAILVNIFGGIMRCDVIAQGIVMAVKDLEIRIPVVVRLQGTRVDDAKALIADSGLKILACDDLDEAAKMVVKLSEIVTLAKEAHVDVKFQLPI | binds |
| Synaptogyrin 3 (protein, UniProt Q8R191 1-229) MEGASFGAGRAGAAFDPVSFARRPQTLLRVVSWVFSIAVFGPIVNEGYVNSDSGPELRCVFNGNAGACRFGVVLGLGAFIACVAFLLLDVRFQQISSVRDRRRAVLLDLGFSGVWSFLWFVGFCFLTNQWQRTTPGPGTAQAGDAARAAIAFSFFSILSWVALTVKALQRFRLGTDMSLFATDQLGTGAAQAYPGYPVGSGVEGTETYQSPPFTETLDTSSKGYQVPAY | binds |
| Tyrosine 3-monooxygenase/tryptophan 5-monooxygenase activation protein gamma (14-3-3 gamma) (protein, UniProt P61982 1-247) MVDREQLVQKARLAEQAERYDDMAAAMKNVTELNEPLSNEERNLLSVAYKNVVGARRSSWRVISSIEQKTSADGNEKKIEMVRAYREKIEKELEAVCQDVLSLLDNYLIKNCSETQYESKVFYLKMKGDYYRYLAEVATGEKRATVVESSEKAYSEAHEISKEHMQPTHPIRLGLALNYSVFYYEIQNAPEQACHLAKTAFDDAIAELDTLNEDSYKDSTLIMQLLRDNLTLWTSDQQDDDGGEGNN | binds |
| Prohibitin (protein, UniProt P67778 1-272) MAAKVFESIGKFGLALAVAGGVVNSALYNVDAGHRAVIFDRFRGVQDIVVGEGTHFLIPWVQKPIIFDCRSRPRNVPVITGSKDLQNVNITLRILFRPVASQLPRIYTSIGEDYDERVLPSITTEILKSVVARFDAGELITQRELVSRQVSDDLTERAATFGLILDDVSLTHLTFGKEFTEAVEAKQVAQQEAERARFVVEKAEQQKKAAIISAEGDSKAAELIANSLATAGDGLIELRKLEAAEDIAYQLSRSRNITYLPAGQSVLLQLPQ | binds |
| Solute carrier family 25 member 3 (protein, UniProt Q8VEM8 46-357) AVEEYSCEFGSMKYYALCGFGGVLSCGLTHTAVVPLDLVKCRMQVDPQKYKGIFNGFSITLKEDGVRGLAKGWAPTLIGYSMQGLCKFGFYEVFKALYSNILGEENTYLWRTSLYLASSASAEFFADIALAPMEAAKVRIQTQPGYANTLREAVPKMYKEEGLNAFYKGVAPLWMRQIPYTMMKFACFERTVEALYKFVVPKPRSECTKAEQLVVTFVAGYIAGVFCAIVSHPADSVVSVLNKEKGSTASQVLQRLGFRGVWKGLFARIIMIGTLTALQWFIYDSVKVYFRLPRPPPPEMPESLKKKLGLTE | binds |
| Internexin neuronal intermediate filament protein alpha (protein, UniProt P46660 1-501) MSFGSEHYLCSASSYRKVFGDSSRLSARLSGPGGSGSFRSQSLSRSNVASTAACSSASSLGLGLAYRRLPASDGLDLSQAAARTNEYKIIRTNEKEQLQGLNDRFAVFIEKVHQLETQNRALEAELAALRQRHAEPSRVGELFQRELRELRAQLEEASSARAQALLERDGLAEEVQRLRARCEEESRGREGAERALKAQQRDVDGATLARLDLEKKVESLLDELAFVRQVHDEEVAELLATLQASSQAAAEVDVAVAKPDLTSALREIRAQYESLAAKNLQSAEEWYKSKFANLNEQAARSTEAIRASREEIHEYRRQLQARTIEIEGLRGANESLERQILELEERHSAEVAGYQDSIGQLESDLRNTKSEMARHLREYQDLLNVKMALDIEIAAYRKLLEGEETRFSTGGLSISGLNPLPNPSYLLPPRILSSTASKVSSAGLSLKKEEEEEEEEASKEVSKKTSKVGEGFEETLGEAVISTKKTGKSATEESTSSSQKM | binds |
